Protein sequences, listed by entry. Tags and fused reporters are not part of them.
UniProt Q16531: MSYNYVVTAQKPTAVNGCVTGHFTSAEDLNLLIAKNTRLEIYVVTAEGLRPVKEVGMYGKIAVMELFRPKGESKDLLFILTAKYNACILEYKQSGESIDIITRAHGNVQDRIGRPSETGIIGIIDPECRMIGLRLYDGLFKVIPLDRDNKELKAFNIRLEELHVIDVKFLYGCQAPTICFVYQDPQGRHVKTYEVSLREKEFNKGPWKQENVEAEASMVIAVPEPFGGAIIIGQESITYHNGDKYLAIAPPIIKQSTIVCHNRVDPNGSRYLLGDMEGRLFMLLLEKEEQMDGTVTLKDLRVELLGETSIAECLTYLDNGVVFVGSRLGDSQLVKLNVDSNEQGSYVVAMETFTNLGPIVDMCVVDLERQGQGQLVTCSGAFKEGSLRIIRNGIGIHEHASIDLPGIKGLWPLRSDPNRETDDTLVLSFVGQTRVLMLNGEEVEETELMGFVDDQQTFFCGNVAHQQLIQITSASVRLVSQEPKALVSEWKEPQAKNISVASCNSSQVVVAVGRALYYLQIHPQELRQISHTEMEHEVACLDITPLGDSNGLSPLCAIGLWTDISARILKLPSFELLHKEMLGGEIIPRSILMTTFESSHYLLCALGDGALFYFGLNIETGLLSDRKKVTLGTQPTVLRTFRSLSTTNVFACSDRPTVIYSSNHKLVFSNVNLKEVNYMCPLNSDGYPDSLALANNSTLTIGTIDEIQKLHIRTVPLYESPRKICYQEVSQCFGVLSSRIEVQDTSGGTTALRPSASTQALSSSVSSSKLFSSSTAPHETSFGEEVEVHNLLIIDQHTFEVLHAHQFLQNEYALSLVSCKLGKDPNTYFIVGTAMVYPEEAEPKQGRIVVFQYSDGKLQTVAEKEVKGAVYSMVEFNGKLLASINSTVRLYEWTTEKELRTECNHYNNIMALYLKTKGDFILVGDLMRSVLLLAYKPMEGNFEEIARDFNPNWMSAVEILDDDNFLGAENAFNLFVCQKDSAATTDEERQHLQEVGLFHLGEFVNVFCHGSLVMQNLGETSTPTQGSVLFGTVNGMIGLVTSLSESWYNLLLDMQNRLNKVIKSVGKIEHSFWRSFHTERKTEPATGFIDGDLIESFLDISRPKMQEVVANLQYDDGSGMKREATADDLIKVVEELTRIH
UniProt Q14681: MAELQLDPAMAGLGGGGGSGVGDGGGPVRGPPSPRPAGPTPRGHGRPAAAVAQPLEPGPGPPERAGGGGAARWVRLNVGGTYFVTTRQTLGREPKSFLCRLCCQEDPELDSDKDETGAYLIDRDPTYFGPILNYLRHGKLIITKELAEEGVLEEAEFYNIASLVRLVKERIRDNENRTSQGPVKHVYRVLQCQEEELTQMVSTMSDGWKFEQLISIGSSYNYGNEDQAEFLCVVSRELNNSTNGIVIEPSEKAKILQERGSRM
UniProt Q9NXV2: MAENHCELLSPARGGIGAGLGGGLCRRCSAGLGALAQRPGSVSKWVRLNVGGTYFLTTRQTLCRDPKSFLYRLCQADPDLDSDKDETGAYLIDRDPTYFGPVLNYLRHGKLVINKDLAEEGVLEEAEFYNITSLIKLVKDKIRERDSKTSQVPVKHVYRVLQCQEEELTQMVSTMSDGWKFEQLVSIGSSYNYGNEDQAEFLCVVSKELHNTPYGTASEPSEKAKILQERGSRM
UniProt Q9UNE7: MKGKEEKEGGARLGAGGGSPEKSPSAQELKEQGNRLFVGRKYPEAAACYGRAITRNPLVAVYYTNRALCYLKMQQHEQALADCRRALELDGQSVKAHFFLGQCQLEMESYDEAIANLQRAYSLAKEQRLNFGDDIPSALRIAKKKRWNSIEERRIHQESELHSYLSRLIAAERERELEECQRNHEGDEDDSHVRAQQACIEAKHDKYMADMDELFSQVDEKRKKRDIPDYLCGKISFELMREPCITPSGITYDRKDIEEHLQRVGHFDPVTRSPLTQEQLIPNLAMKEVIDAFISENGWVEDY
UniProt P15884: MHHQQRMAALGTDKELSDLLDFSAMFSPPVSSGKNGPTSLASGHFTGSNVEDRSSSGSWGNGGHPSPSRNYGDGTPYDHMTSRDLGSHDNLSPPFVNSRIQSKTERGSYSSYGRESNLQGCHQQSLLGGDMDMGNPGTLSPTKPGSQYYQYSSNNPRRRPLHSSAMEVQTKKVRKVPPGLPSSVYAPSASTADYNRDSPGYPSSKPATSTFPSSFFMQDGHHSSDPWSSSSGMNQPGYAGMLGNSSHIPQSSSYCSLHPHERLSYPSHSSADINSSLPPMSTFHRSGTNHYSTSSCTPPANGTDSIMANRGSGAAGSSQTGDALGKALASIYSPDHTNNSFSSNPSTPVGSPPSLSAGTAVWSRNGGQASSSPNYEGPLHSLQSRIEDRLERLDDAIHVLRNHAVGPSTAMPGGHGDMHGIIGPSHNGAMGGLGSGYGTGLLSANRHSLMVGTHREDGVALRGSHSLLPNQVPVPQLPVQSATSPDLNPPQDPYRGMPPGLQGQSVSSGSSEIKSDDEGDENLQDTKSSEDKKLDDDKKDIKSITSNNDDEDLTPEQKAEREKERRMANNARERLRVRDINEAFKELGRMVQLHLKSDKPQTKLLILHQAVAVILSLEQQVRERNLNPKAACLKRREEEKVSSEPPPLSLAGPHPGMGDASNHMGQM
UniProt P19474: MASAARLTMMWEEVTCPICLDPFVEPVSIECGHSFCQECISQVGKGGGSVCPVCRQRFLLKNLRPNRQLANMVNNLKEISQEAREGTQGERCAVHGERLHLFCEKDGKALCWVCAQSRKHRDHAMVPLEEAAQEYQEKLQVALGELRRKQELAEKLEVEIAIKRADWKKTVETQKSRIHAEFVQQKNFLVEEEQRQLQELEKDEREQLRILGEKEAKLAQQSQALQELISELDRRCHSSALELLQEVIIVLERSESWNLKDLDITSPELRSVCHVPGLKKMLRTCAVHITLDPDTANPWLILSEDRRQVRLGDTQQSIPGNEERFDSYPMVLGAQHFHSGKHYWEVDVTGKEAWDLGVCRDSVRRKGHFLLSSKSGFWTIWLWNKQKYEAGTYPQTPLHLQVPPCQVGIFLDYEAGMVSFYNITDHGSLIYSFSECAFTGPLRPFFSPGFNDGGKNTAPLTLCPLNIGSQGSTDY
UniProt Q13263: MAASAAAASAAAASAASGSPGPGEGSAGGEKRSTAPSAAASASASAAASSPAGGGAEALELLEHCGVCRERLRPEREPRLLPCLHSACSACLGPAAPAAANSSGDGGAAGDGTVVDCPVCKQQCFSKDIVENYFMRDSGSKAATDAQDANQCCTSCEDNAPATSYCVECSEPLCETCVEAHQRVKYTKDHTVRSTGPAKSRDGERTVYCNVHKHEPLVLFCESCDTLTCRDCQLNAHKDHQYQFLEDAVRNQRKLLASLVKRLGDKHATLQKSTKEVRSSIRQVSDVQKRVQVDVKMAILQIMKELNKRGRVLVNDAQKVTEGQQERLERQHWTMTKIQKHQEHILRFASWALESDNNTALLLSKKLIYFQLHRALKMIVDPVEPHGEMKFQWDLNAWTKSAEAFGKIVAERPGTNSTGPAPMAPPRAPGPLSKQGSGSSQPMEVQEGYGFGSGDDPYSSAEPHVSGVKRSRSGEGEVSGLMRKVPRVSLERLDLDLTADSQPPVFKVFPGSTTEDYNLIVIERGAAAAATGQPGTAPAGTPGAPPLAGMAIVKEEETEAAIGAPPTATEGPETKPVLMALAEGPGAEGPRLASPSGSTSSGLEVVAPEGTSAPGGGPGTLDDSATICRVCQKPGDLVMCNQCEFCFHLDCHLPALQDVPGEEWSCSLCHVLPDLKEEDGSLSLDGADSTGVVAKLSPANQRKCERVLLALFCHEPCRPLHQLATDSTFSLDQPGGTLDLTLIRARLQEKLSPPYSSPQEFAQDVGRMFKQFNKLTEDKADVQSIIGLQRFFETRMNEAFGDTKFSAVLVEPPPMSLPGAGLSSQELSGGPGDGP

According to PMC12462935, “TRIM21‐Mediated K11‐Linked Ubiquitination of ID1 Suppresses Tumorigenesis and Promotes Cuproptosis in Esophageal Squamous Cell Carcinoma” (Advanced Science, 2025):

target: T1, ID1-Flag (UniProt P41134); assay: affinity purification with mass spectrometry; KYSE30 and KYSE450 cells transfected with control or ID1-Flag plasmids, harvested 48 h post-transfection; immunoprecipitates separated by SDS-PAGE, in-gel trypsin digestion, Q Exactive HF
T1 sequence: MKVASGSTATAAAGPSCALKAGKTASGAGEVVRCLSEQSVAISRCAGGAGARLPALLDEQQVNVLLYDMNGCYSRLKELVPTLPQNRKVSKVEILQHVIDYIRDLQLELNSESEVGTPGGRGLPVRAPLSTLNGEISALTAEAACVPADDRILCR

binding, binds:
DDB1 (endogenous) (from UniProt Q16531 1-1140)
KCTD2 (endogenous) (from UniProt Q14681 1-263)
KCTD5 (endogenous) (from UniProt Q9NXV2 1-234)
STUB1 (endogenous) (from UniProt Q9UNE7 1-303)
TCF4 (endogenous) (from UniProt P15884 1-667)
TRIM21 (endogenous) (from UniProt P19474 1-475) (enzyme)
TRIM28 (endogenous) (from UniProt Q13263 1-835)

No constants are given. Whether binding was seen depends on the method and setting. In cells and extracts the contact can be indirect. These calls come from enrichment with a bait or labelling near it, and not all partners need be listed. Where a sequence is shown, tags or fusion partners need not be part of it.
